Some results were stated once for a whole list of compounds, not compound by compound.
How the values were obtained:
Type in all cases: in vivo
Laodelphax striatellus = test: Insecticidal test on Laodelphax striatellus (rice seedling dip); conditions: 500 ppm, rice seedlings dipped 30 seconds, 3rd-instar larvae, 8 days after inoculation
Excerpt: Insecticidal Test on Laodelphax striatellus
The oxime group-containing quinoline compounds represented by the general formula (1) of the present invention or salts thereof were separately dispersed in water and diluted to 500 ppm. Rice plant seedlings (variety: Nihonbare) were dipped in the agrochemical dispersions for 30 seconds. After air-dried, each seedling was put into a separate glass test tube and inoculated with ten 3rd-instar larvae of Laodelphax striatellus, and then the glass test tubes were capped with cotton plugs. At 8 days after the inoculation, the numbers of surviving larvae and dead larvae were counted, the corrected mortality rate was calculated according to the formula shown below, and the insecticidal efficacy was evaluated according to the criteria shown below. Corrected mortality rate (%)=100×(Survival rate in a non-treatment plot−Survival rate in a treatment plot)/Survival rate in a non-treatment plot [Math. 2] Criteria A: the corrected mortality rate is 100%. B: the corrected mortality rate is 90 to 99%. C: the corrected mortality rate is 80 to 89%. D: the corrected mortality rate is 50 to 79%.

Myzus persicae = test: Test for control efficacy on Myzus persicae (foliar application, potted Chinese cabbage); conditions: 500 ppm dispersion in water, foliar application to Chinese cabbage, 6 days after application
Plutella xylostella = test: Insecticidal test on Plutella xylostella (dip of Chinese cabbage seedlings with laid eggs); conditions: 500 ppm, seedlings with laid eggs dipped about 30 seconds, 25° C., 6 days after dip treatment; criteria of Test Example 2
Excerpt: Insecticidal Test on Plutella xylostella
Adults of Plutella xylostella were released onto Chinese cabbage seedlings and allowed to lay eggs thereon. At 2 days after the release of the adults, the Chinese cabbage seedlings with laid eggs were dipped for about 30 seconds in agrochemical dispersions diluted to 500 ppm, each of which contained a different kind of oxime group-containing quinoline compound represented by the general formula (1) of the present invention as an active ingredient. After air-dried, the seedlings were kept in a thermostatic chamber at 25° C. At 6 days after the dip treatment, the number of hatched larvae per plot was counted, the mortality rate was calculated according to the formula shown below, and the insecticidal efficacy was evaluated according to the criteria of Test Example 2. This test was conducted in triplicate using 10 adults of Plutella xylostella per plot. Corrected mortality rate (%)=100×(Number of hatched larvae in a non-treatment plot−Number of hatched larvae in a treatment plot)/Number of hatched larvae in a non-treatment plot [Math. 3]

Compound	insecticidal efficacy (corrected mortality rate) activity level (Laodelphax striatellus)	control efficacy (control rate) activity level (Myzus persicae)	insecticidal efficacy (corrected mortality rate) activity level (Plutella xylostella)
CCS(=O)(=O)c1cc2ccc(C=NOC(C)=O)cc2nc1-c1nc2cc(C(F)(F)F)cnc2n1C [Compound 2-28]	A (the corrected mortality rate is 100%.)	A (the control rate is 100%.)	A (the corrected mortality rate is 100%.)
CCS(=O)(=O)c1cc2ccc(C(C)=NO)cc2nc1-c1nc2cc(C(F)(F)F)cnc2n1C [Compound 2-2]	A (the corrected mortality rate is 100%.)	A (the control rate is 100%.)	A (the corrected mortality rate is 100%.)
CCS(=O)(=O)c1cc2ccc(C=NOCC(F)(F)F)cc2nc1-c1nc2cc(C(F)(F)F)cnc2n1C [Compound 2-7]	A (the corrected mortality rate is 100%.)	A (the control rate is 100%.)	A (the corrected mortality rate is 100%.)
CCS(=O)(=O)c1cc2ccc(C=NOCSC(F)(F)F)cc2nc1-c1nc2cc(C(F)(F)F)cnc2n1C [Compound 2-39]	A (the corrected mortality rate is 100%.)	A (the control rate is 100%.)	A (the corrected mortality rate is 100%.)

From US10435411B2, “Oxime group-containing quinoline compound, N-oxide thereof or salt thereof, agricultural and horticultural insecticide comprising the compound, and method for using the insecticide” (Nihon Nohyaku Co., Ltd., priority 2016, dated 2019)
